Data taken from publication doi:10.1101/592923.

Amino acid sequences for entries named in this document (tags omitted).
UniProt Q00416: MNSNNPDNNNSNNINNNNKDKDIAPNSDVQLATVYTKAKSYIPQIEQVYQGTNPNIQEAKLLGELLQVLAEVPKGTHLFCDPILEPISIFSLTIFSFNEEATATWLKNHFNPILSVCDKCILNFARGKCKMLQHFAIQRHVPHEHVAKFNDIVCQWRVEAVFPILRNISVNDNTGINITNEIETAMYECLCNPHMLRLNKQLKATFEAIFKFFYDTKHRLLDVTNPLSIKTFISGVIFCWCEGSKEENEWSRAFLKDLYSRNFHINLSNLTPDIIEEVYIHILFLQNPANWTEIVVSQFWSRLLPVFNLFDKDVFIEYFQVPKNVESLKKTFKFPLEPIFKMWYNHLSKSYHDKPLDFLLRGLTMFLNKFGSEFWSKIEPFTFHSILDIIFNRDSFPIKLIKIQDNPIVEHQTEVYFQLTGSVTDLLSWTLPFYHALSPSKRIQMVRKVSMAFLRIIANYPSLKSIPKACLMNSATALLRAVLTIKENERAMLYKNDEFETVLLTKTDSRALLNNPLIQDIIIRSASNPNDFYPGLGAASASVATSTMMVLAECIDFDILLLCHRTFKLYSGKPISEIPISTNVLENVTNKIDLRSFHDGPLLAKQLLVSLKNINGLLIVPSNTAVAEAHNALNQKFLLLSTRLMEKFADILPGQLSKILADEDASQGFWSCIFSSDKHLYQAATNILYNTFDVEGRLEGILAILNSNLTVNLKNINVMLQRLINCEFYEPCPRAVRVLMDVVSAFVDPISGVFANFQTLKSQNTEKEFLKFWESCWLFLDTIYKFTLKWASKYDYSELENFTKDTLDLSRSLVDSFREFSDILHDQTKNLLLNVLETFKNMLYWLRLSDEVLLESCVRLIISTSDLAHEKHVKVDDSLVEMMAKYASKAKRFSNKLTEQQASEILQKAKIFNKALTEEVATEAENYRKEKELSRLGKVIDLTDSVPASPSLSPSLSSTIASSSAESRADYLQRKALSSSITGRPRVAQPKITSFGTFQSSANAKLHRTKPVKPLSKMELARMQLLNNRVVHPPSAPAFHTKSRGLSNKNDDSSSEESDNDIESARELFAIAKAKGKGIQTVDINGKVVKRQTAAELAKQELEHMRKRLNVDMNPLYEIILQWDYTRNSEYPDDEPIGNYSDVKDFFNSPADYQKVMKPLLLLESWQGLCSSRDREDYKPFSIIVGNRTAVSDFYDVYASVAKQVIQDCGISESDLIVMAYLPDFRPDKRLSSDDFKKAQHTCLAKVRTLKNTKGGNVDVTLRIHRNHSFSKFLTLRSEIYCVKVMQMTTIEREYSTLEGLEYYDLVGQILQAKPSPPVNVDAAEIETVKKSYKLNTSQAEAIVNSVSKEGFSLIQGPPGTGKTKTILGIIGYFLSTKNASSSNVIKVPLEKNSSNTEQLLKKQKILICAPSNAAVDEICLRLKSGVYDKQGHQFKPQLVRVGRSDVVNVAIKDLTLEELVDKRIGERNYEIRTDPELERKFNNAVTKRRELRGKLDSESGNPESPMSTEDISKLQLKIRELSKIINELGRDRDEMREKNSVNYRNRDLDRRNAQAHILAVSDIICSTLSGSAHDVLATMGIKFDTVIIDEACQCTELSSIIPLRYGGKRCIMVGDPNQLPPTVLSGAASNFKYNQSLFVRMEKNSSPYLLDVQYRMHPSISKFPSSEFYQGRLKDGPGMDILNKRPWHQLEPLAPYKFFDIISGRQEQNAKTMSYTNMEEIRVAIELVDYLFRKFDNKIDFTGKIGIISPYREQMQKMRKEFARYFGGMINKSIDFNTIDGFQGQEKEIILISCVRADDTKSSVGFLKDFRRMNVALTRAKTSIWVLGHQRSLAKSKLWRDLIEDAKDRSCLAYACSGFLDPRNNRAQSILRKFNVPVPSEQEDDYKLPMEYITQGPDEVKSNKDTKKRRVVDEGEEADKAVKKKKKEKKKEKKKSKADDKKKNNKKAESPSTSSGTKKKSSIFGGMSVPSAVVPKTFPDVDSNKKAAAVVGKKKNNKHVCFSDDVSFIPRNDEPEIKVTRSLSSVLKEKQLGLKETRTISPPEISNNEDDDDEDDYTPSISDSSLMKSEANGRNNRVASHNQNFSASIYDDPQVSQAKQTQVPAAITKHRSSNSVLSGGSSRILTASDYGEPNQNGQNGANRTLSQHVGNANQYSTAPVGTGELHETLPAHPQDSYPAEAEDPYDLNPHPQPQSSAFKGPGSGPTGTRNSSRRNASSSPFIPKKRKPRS

Biological target: T1, Nab3-TAP (S. cerevisiae) (UniProt P38996)
T1 sequence: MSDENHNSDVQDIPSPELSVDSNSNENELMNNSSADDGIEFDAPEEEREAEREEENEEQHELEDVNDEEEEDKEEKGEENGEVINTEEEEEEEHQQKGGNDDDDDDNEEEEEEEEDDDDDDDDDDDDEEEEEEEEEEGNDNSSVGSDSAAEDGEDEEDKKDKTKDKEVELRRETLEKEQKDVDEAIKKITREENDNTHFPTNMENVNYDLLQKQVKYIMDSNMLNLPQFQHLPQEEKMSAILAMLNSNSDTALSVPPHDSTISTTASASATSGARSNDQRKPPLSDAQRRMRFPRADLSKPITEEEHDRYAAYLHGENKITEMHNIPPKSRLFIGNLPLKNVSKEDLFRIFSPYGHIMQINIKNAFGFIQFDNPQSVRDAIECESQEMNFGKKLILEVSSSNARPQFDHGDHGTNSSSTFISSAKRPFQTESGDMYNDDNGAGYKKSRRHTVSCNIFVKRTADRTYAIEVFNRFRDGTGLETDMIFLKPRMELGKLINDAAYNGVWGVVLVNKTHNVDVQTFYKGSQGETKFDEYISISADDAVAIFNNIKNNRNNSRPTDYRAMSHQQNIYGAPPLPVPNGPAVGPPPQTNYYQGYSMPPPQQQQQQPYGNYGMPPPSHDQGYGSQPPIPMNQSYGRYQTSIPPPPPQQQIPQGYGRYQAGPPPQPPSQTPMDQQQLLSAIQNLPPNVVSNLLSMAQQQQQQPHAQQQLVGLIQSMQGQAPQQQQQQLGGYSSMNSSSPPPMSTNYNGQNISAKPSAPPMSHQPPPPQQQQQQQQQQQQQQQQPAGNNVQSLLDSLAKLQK
Assay: affinity purification with mass spectrometry

**Q.** How did the binding turn out when Sen1 (from UniProt Q00416 1-2231) was run?
**A.** binds

B1: Nrd1 (protein, UniProt P53617 1-575)
chain: MQQDDDFQNFVATLESFKDLKSGISGSRIKKLTTYALDHIDIESKIISLIIDYSRLCPDSHKLGSLYIIDSIGRAYLDETRSNSNSSSNKPGTCAHAINTLGEVIQELLSDAIAKSNQDHKEKIRMLLDIWDRSGLFQKSYLNAIRSKCFAMDISNNTANTASQQLSLDPKQRSKQILSNLKKSPPLNLNISLPTDLTSTDPAKQQAALFQVIAALQKHFKTLPSHTSVGTVAPPQAHTITEYGSRRERERERERYNSRRNRSRSPPAPFSQPSTGRKDRYPSVAQDQYSIGAPNTTFGTNNHHLYPDELNVSNNPHYRPKPVSYDSTLPPDHIKVYSRTLFIGGVPLNMKEWDLANVLKPFAEVQSVILNNSRKHAFVKVYSRHEAENVLQNFNKDGALPLRTRWGVGFGPRDCCDYQHGYSIIPMHRLTDADKKWSVSAQWGGTSGQPLVTGIVFEEPDIIVGEGVSSKAISQKMPTDSGRNGPRSGKPNKSGSISSISPVPYGNAPLASPPPQQYVQPMMQQPYGYAPNQPLPSQGPAAAAPPVPQQQFDPTAQLNSLMNMLNQQQQQQQQS
**Q.** With B1 as the molecule, how does the binding read?
**A.** binds

No constants are given. Whether binding was seen depends on the method and setting. In cells and extracts the contact can be indirect. Here binding means that the protein was enriched with, or labelled near, the bait; the list need not be complete.
